Measurements published in US20110034427A1, “Anti-aging properties of quercetin, 18alpha-glycyrrhetinic acid and hederagenin and their derivatives” (priority 2009, published 2011).
Some entries share one result that the patent states for a list of compounds.

System: HFL-1 HDFs
Assay: Cellular survival with or without oxidative stress
Format: cell-based, human
Settings: 300 μM H2O2 for 2.5 h, then additional 24 h in culture
Protocol: 6.1. HFL-1 HDFs were cultured as described in 5.1. Following the incubation with the various substances cells were collected and counted using a Coulter Z2® counter (Coulter Corporation). In replica cultures, culture medium supplemented with the substances as described above were also supplemented with 300 μM H2O2 for 2.5 h. The cells were then thoroughly washed with PBS, supplemented with complete medium containing the examined substances and maintained in culture for additional 24 h. They were then collected and counted using a Coulter Z2® counter (Coulter Corporation).

O=c1c(O)c(-c2ccc(O)c(O)c2)oc2cc(O)cc(O)c12 [quercetin, Quercetin]
higher survival rate after oxidative stress as compared to control cultures: ≤ 14.5%
